From publication doi:10.1101/2025.07.16.665194
Results are given in words; binding and its absence hold for the method and conditions named. In cells and extracts the contact can be indirect. Some entries that bind do so weakly or less than the wild type. Where a sequence is shown, tags or fusion partners need not be part of it. Blank lines part the entries; values can stand above or below the molecule they belong to.

The chains behind the UniProt entries cited, without tags or fusion partners. Residues count along the entry.
UniProt Q68EF4, residues 33-912: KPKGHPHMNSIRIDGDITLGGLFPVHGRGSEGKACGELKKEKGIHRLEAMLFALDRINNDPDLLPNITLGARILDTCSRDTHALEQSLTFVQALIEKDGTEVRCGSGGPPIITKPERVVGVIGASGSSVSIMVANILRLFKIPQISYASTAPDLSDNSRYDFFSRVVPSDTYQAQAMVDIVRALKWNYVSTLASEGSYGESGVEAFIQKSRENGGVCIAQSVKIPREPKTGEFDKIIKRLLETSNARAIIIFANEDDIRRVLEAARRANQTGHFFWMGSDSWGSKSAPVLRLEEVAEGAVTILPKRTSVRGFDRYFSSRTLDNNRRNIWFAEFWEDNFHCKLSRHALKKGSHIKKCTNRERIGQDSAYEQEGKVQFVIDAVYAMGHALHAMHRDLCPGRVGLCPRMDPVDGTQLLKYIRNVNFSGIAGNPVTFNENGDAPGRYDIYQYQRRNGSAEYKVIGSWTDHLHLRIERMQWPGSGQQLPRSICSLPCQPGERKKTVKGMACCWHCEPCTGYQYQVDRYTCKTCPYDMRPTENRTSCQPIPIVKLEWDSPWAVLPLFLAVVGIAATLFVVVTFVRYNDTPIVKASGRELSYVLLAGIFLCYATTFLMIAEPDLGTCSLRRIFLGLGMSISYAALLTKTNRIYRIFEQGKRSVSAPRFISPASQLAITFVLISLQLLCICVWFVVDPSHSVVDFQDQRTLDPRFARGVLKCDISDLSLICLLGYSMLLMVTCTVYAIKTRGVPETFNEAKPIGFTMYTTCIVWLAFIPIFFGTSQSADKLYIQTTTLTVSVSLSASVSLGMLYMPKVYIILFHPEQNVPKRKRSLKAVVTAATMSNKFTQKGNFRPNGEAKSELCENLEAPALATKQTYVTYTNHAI
UniProt Q3UVX5, residues 19-1203: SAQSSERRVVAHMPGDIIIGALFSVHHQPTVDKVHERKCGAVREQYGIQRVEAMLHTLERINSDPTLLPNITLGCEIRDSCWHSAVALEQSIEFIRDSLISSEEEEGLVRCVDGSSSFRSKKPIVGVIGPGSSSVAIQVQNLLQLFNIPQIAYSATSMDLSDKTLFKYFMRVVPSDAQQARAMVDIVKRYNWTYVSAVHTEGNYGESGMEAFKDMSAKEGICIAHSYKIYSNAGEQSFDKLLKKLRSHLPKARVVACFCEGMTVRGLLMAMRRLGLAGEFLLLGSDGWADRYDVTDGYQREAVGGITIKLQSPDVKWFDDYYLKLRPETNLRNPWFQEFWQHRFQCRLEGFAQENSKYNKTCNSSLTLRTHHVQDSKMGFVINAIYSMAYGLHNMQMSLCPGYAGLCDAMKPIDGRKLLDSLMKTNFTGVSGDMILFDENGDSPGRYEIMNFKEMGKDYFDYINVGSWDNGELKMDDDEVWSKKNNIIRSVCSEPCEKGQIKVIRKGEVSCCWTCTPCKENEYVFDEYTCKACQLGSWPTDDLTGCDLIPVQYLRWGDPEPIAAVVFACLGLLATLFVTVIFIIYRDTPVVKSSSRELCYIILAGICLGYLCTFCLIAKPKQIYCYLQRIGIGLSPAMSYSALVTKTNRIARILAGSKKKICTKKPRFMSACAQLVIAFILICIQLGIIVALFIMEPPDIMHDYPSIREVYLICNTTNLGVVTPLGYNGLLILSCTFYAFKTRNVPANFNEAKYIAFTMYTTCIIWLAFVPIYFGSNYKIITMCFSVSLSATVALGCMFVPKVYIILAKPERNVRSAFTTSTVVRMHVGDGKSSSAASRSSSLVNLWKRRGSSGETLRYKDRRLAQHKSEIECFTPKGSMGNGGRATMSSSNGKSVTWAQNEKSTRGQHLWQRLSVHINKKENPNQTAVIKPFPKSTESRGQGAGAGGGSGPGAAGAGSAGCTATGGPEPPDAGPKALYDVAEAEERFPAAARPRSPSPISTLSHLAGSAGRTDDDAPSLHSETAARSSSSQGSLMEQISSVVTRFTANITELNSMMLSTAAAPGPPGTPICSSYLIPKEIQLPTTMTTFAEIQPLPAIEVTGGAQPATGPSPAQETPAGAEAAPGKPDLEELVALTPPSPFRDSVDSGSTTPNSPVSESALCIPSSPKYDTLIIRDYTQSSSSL

Legend:
Assay in all cases: co-IP; HEK293T cells overexpressing Grm4-DYDDK or Grm5-DYDDK together with V5-tagged NPDC1; V5 beads, and in reverse DYDDK beads; anti-V5 and anti-DYDDK blots
[1] = target: T1, Neuronal Proliferation, Differentiation and Control 1 (NPDC1), V5-tagged (human) (UniProt Q9NQX5)
T1 sequence: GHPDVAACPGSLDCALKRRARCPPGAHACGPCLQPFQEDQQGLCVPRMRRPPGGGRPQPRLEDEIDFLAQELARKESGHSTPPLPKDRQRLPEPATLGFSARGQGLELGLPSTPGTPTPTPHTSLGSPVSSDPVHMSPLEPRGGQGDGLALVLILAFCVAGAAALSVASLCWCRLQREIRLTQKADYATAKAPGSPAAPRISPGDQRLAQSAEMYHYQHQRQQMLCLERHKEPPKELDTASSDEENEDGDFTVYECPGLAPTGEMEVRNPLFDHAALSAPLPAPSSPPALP

Grm4-DYDDK = Grm4-DYDDK (UniProt Q68EF4)
Grm5-DYDDK = Grm5-DYDDK (UniProt Q3UVX5)

binding [1]: no binding
Molecule: Grm5-DYDDK (from UniProt Q3UVX5 19-1203) (receptor)

binding (Grm4-DYDDK): binds
binding (Grm5-DYDDK): no binding
B1: Neuronal Proliferation, Differentiation and Control 1 (NPDC1), V5-tagged (receptor, UniProt Q9NQX5 35-325)
chain: T1 sequence
